In PMC6636133 one finds binding data, which are given here for five substances.

Amino acid sequences for entries named in this document (tags omitted). Residues count along the entry.
UniProt O00327: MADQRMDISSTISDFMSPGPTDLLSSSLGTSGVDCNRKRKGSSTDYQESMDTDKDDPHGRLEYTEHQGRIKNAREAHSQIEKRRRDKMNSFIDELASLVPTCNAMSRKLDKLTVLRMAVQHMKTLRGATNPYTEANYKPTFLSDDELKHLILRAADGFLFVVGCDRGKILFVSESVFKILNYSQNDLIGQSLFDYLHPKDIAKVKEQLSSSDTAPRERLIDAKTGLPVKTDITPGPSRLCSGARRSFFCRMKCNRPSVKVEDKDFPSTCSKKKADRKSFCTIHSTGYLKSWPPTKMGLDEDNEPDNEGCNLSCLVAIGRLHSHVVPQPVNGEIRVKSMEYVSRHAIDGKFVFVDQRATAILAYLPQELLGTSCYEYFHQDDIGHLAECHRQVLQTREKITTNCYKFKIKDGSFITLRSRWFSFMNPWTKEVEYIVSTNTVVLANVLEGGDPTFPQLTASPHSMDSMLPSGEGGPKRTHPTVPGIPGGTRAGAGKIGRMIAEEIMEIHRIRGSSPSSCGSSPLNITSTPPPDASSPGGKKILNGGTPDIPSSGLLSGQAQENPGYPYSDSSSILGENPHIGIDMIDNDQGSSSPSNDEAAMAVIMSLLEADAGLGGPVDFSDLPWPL
UniProt Q92793: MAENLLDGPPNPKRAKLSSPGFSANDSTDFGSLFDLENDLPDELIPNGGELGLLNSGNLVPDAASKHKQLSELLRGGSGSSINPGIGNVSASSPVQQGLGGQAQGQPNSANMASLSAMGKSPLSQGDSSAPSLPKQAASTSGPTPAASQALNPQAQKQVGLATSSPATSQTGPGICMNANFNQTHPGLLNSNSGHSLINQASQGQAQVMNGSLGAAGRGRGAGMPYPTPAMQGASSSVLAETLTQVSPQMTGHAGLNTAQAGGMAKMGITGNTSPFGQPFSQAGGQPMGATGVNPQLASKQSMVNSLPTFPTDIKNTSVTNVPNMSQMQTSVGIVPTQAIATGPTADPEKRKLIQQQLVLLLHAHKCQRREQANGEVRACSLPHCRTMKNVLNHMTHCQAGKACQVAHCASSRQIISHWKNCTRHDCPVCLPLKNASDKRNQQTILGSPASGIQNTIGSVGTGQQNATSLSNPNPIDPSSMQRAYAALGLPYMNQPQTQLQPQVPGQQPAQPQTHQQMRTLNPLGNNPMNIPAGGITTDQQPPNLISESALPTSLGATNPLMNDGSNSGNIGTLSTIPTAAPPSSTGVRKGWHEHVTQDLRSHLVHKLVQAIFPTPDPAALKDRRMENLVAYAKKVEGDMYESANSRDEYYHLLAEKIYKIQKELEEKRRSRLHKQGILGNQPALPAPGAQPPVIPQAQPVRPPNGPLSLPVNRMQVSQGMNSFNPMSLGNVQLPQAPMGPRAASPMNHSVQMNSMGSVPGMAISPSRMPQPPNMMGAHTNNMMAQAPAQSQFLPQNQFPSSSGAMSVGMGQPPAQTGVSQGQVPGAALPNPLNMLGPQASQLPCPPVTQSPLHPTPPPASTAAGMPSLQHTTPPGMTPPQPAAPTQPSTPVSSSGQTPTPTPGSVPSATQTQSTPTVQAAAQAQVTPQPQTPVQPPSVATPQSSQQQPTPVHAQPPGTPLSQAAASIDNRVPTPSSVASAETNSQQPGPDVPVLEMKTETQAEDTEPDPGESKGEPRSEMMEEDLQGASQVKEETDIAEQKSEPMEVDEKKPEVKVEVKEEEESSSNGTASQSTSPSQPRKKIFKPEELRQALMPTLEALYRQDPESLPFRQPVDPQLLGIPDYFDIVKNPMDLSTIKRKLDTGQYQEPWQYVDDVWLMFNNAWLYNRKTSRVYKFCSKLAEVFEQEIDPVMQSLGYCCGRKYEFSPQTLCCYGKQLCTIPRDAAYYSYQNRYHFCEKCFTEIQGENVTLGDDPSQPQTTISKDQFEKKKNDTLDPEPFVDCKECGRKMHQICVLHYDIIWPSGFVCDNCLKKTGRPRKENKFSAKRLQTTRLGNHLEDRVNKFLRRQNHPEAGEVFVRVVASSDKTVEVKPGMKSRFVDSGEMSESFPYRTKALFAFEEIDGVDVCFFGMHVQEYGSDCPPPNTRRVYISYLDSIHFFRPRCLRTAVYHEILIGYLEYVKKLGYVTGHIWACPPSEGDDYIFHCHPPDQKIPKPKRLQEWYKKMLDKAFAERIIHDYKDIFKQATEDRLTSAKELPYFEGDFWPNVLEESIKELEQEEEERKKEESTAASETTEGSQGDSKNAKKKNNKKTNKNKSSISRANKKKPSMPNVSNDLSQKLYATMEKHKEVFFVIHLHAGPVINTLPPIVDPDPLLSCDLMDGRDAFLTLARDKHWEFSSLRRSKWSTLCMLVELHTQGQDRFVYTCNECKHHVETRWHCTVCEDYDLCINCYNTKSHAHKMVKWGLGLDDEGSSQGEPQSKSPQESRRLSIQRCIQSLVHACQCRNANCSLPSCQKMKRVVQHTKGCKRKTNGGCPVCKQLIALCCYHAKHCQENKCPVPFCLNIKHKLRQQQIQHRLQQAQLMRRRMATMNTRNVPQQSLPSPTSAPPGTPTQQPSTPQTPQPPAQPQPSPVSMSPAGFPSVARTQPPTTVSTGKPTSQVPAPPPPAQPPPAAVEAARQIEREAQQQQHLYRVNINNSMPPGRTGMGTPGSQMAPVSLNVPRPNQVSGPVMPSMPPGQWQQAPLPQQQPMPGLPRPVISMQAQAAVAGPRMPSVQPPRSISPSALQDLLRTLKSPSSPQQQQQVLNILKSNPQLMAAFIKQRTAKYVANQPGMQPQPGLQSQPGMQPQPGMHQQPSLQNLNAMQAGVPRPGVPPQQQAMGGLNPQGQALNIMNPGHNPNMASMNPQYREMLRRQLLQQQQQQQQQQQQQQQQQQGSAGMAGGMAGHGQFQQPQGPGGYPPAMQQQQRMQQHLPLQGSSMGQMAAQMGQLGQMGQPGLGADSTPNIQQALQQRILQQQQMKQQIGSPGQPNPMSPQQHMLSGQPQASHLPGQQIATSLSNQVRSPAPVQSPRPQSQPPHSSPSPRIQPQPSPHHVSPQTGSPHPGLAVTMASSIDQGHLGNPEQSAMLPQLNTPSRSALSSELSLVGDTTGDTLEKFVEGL
UniProt Q04206: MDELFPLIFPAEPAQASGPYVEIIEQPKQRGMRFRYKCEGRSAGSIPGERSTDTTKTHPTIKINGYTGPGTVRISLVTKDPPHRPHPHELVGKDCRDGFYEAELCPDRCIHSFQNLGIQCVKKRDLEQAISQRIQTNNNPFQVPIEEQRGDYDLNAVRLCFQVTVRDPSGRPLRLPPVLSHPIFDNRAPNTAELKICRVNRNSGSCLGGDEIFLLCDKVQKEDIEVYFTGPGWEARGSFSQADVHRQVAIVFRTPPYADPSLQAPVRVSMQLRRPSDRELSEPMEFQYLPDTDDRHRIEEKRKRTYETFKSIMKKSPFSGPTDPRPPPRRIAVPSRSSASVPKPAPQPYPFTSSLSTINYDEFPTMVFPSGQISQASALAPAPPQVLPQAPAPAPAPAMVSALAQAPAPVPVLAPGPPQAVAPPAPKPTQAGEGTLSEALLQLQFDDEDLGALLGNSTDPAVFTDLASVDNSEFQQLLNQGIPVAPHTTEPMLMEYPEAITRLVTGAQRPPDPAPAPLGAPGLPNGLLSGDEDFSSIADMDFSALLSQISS
UniProt P19838, residues 1-433: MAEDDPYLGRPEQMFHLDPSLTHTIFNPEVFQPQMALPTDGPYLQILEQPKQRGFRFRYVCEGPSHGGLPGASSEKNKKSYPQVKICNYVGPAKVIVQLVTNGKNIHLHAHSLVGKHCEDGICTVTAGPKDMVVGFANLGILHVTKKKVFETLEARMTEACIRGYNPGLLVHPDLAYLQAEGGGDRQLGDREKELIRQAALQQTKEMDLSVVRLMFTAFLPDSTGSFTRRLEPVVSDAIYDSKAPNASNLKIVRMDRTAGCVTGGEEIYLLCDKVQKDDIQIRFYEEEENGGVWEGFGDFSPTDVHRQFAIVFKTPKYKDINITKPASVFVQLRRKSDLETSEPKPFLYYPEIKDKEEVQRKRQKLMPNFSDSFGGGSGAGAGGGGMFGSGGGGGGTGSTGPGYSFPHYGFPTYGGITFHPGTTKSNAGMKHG

These are yes or no findings as the source states them, for the method shown. For part of these data: Binding seen in cells or lysates may run through a third protein. Some results given as binding are weak or reduced against the parent protein; the word gives no strength.

The target of test [1] is endogenous BMAL1 (human (endogenous in ZR-75-30)) (UniProt O00327). The experiment in a line: co-IP; endogenous proteins of ZR-75-30 cells; immunoprecipitation with anti-BMAL1 antibody, Western blot with anti-p65; IgG as negative control. On the technique in general: In western blotting, separated proteins are transferred to a membrane and probed.
The target of test [2] is HA-BMAL1 (brain and muscle arnt-like 1) (human) (UniProt O00327). The test is described as follows: co-IP; HEK 293T cells transfected with tagged proteins; immunoprecipitation by one tag, Western blot by the other; for CBP and p65 also with overexpressed HA-BMAL1.
Test [3] has as its target Myc-CBP (CREB binding protein) (UniProt Q92793). The test is described as above.
Test [4] has as its target FLAG-p65 (NF-κB p65) (human) (UniProt Q04206). The description is as above.
A further test addresses pBIND-p65 (human) (UniProt Q04206). The test is described as follows: two-hybrid; CheckMate mammalian two-hybrid system (Promega); pACT-BMAL1 and pBIND-p65 with the pG5-luc reporter in COS-7 cells; luciferase after 24 h.

For the substance “endogenous p65 (from UniProt Q04206 1-551)”, in test [1], the binding result is listed as “binds”.

In the case of “Flag-p50 (NF-κB p50) (from UniProt P19838 1-433)”, the binding entry in test [2] was “no binding”.

Turning to “HA-BMAL1 (brain and muscle arnt-like 1) (from UniProt O00327 1-626)”, the binding entry in test [3] and in test [4] was “binds” throughout.

Take pACT-BMAL1 (from UniProt O00327 1-626): the binding result with pBIND-p65 (human) was “binds”.

For the substance “FLAG-p65 (NF-κB p65) (from UniProt Q04206 1-551)”, the binding result in test [2] is “binds”.
